“Also recorded” adds a separate entry of the source.
Test: Removal (oxidation) of Carbamazepine (CBZ) by ferrate with or without amino acids, HPLC

Compound: O=C(O)[C@@H]1CCCN1 [proline]
- influence of amino acid on removal of CBZ by ferrate, compared to ferrate only (control) ([amino acid]=100.0 μM, [CBZ]=5.0 μM, [ferrate]=100.0 μM, pH 9.0, 1 min): demonstrated activation of ferrate; also recorded: enhanced removal
- oxidation of CBZ (change versus molar ratio 1.0) (molar ratio of proline to ferrate 2.0, [ferrate]=100.0 μM, pH 9.0): decreased

— patent publication US12635693B2, “Activated ferrate compositions and methods” (THE TEXAS A&M UNIVERSITY SYSTEM, priority 2020, dated 2026)
